In patent EP1071411B1, “TOPICAL IMMUNOSTIMULATION TO INDUCE LANGERHANS CELL MIGRATION” (TORREY PINES INSTITUTE FOR MOLECULAR STUDIES, priority 1998, dated 1999):
At least one structure is not confirmed: it was looked up by name or label, or the drawing left a doubt.

System: Langerhans cells
Assay: FITC Langerhans cell migration screening, draining inguinal lymph node, flow cytometry
Format: in vivo, C57BL/6 mice
Settings: 5 mg/ml FITC in acetone and migration inducer, 100 µl, after 2 days; Figure 7
From the text: Fluorescein isothiocyanate (FITC) has been used extensively by the inventor and others, to characterize Langerhans cell migration. FITC is a small (mw 389) non-peptide, largely lipophilic molecule, capable of crossing the stratum corneum. Immunogenicity of FITC is due to the reactivity of its isothiocyanate group (-N-C-S) with free amino groups, permitting it to be covalently bound to proteins and/or peptides. C57BL/6 mice received the following treatments: 1) none; 2) abdomen shaving only; 3) topical administration of FITC in acetone; 4) topical administration of FITC in acetone and olive oil; 5) topical administration of FITC in acetone and DMSO diluted in phosphate buffered saline (PBS); and 6) topical administration of FITC in acetone and dibutylphthalate. The draining inguinal lymph nodes were then examined for immigrant Langerhans cells by immunofluorescent flow cytometry each day thereafter. […]
Compounds which are useful as inducers of Langerhans cell migration may be screened using the standard FITC methods described for the data presented in Figures 1-3. […] After 2 days, the draining inguinal lymph node is removed and the total number of dendritic cells (both FITC+ and FITC-) is determined by flow cytometry and MHC class II immunoassay.

How did the “Total MHC class II^th cells, distance from the positive control, dibutylphthalate (DBP)” value turn out when `CC(C)CCCCCCOC(=O)c1ccccc1C(=O)OCCCCCCC(C)C` [DINP, diisononylphthalate] was run?
The value was no more than 1 standard deviation.
